Patent publication US20040029100A1, “Rapid screen to identify p-glycoprotein substrates and high affinity modulators” (priority 2000, published 2004)
Some entries of the source have several records that differ or are many. The other results are left out here. The source may hold further records. The records of an entry differ, and nothing given here explains why; they may come from other doses, times, organisms or constructs than stated.

Amino acid sequences for entries named in this document (tags omitted).
UniProt P21448, whole entry: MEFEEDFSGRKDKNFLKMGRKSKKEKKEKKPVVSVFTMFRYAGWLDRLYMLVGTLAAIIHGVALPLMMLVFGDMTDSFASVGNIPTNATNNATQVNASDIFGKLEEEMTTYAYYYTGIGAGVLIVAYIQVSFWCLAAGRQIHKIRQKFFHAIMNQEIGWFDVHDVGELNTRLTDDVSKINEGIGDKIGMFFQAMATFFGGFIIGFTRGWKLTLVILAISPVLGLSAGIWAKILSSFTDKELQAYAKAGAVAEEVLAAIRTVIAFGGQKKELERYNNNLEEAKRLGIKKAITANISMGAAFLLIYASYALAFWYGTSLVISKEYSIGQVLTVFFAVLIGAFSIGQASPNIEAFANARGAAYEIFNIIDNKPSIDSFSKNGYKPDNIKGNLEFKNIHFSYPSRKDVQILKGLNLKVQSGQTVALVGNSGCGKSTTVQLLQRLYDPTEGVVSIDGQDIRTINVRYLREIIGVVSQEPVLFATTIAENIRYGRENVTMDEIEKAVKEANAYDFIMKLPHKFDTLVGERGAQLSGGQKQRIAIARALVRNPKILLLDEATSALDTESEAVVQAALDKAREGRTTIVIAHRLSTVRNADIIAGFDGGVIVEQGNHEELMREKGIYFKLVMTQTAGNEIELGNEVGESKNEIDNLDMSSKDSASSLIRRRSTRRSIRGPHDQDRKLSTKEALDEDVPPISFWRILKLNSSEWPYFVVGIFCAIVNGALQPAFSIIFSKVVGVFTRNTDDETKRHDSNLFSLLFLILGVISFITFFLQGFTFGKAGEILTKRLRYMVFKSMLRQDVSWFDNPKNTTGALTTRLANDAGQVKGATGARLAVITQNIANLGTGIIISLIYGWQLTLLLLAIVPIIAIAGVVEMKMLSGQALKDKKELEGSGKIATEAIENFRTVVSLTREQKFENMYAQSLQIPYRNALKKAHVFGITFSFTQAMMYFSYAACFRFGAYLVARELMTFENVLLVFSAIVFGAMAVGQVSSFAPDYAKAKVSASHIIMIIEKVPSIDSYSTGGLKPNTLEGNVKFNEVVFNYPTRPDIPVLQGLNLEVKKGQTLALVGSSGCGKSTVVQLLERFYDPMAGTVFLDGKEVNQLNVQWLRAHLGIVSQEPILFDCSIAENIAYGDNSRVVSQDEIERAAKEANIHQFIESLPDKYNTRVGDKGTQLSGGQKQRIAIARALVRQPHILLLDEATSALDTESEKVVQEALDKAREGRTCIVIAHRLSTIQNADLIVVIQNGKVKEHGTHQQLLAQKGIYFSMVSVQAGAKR

Target: P-glycoprotein (Pgp) purified from MDR CH^RB30 Chinese hamster ovary cells (Cricetulus griseus, UniProt P21448)

For `CN(C)c1ccc2c(-c3ccccc3)c3ccc(N(C)C)cc3[o+]c2c1`, the Kd was 810 nM and 2.7 µM.
